Test results as given in US7744920B2, “Use of liposomal glucocorticoids for treating inflammatory states” (Hadasit Medical Research Services & Development Limited, priority 2004, dated 2010).

Settings: up to concentration of 50 mM
Protocol: Surface tension was measured using μtrouge S (Kibron Inc., Helsinki Finland). A solution containing GC derivative (300 μL) was placed in the well after calibration and zeroing of the sensor using pure water and air. The measurement was performed at 26° C.

- surface activity: not surface active
SMILES: C[C@@H]1C[C@H]2[C@@H]3CCC4=CC(=O)C=C[C@]4(C)[C@@]3(F)[C@@H](O)C[C@]2(C)[C@@]1(O)C(=O)COP(=O)(O)O [Dexamethasone phosphate]
